Data: patent US20140096274A1 (published 2014)
No constants are given. Whether binding was seen depends on the method and setting. Some binding calls cover weakened binding; strength is not graded here. Tags and fused reporters may be left off the sequences shown.

Experiments:
human RANK-Fc [1] = target: T1, human RANK-Fc (human, UniProt Q9Y6Q6 30-212); experiment: SPR single cycle kinetics
T1 construct: also called hRANK-Fc; hRANK-FC; not shown: Fc part of the bought fusion; not described
T1 sequence (looked up): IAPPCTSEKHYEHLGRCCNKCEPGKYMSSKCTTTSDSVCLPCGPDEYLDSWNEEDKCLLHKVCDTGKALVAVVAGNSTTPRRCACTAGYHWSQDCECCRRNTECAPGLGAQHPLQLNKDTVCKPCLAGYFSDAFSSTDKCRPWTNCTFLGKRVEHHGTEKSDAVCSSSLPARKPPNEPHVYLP

murine RANK-Fc [2] = target: T2, murine RANK-Fc (mouse, UniProt O35305 31-214); experiment: SPR single cycle kinetics
T2 construct: also called mRANK-Fc; mRANK-FC; not shown: Fc part of the bought fusion; not described
T2 sequence (looked up): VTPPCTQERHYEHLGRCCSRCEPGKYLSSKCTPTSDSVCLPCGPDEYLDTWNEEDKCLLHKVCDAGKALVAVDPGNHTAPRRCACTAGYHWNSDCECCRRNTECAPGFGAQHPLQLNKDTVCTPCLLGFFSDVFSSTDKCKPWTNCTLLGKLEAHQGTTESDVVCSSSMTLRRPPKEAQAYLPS

murine RANK-Fc [3] = target: T2, murine RANK-Fc; experiment: SPR, whole cycle: capture of RANK-Fc at high density, injection of RANKL, regeneration; arrows mark the response expected for 1:1, 1:2, 1:3 stoichiometry
murine RANK-Fc [4] = target: T2, murine RANK-Fc; experiment: SPR, mRANK-Fc at low density
murine RANK-Fc [5] = target: T2, murine RANK-Fc; experiment: SPR, mRANK-Fc captured at high density (1880 RU), injection 0-180 s, dissociation to 650 s
murine RANK-Fc [6] = target: T2, murine RANK-Fc; experiment: SPR single cycle kinetics, mRANK-Fc captured at 20-40 RU, five injections from about 0.3 to 15 nM, 600 s dissociation
murine RANK-Fc [7] = target: T2, murine RANK-Fc; experiment: ELISA, immobilized mRANK-Fc, flag-mRANKL WT detected with anti-flag antibody, fixed concentrations of mD2 as competitor
murine RANK-Fc [8] = target: T2, murine RANK-Fc; experiment: competitive ELISA, RANK-Fc coated wells, flag-mRANKL detected with anti-flag antibody, fixed concentrations of mD2 as competitor
murine RANK-Fc [9] = target: T2, murine RANK-Fc; experiment: SPR, mRANK-Fc captured at very low density (7.5 RU), injection 0-180 s, dissociation to 650 s
human RANK-Fc [10] = target: T1, human RANK-Fc; experiment: SPR single cycle kinetics, hRANK-Fc captured at 20-40 RU, five injections from about 0.3 to 15 nM, 600 s dissociation
human OPG-Fc (human) [11] = target: T3, human OPG-Fc (human) (UniProt O00300); experiment: SPR, hOPG-Fc immobilized on CM5 chip, 25 C
T3 sequence (looked up): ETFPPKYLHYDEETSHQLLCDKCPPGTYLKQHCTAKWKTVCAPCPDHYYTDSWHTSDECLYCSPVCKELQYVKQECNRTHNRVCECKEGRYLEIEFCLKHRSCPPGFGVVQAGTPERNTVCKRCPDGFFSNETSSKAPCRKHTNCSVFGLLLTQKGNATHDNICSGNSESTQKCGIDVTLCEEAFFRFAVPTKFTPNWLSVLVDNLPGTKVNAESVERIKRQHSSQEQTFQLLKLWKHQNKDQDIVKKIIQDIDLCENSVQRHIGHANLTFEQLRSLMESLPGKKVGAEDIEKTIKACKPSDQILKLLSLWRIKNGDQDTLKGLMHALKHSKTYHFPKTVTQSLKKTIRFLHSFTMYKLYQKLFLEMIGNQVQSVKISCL

human OPG-Fc (human) [12] = target: T3, human OPG-Fc (human); experiment: SPR, hOPG-Fc directly immobilized on a CM5 chip, 25 C
murine OPG-Fc (mouse) [13] = target: T4, murine OPG-Fc (mouse) (UniProt O08712); experiment: ELISA, immobilized murine OPG-Fc, % binding normalised to the highest concentration
T4 sequence (looked up): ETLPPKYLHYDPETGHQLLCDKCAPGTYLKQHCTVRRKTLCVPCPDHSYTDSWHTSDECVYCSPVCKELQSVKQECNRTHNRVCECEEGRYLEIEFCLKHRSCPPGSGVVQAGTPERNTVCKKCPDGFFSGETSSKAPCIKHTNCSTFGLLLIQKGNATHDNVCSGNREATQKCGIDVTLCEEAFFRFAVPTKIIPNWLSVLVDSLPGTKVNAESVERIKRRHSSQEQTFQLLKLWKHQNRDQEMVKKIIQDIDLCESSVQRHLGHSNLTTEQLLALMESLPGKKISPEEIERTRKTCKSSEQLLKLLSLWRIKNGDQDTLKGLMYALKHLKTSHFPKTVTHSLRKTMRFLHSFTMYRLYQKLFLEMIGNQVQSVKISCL

human OPG-Fc (human) [14] = target: T3, human OPG-Fc (human); experiment: ELISA, wells coated with hOPG-Fc, concentration range of RANKL (axis printed [OPG] (nM))
human OPG-Fc (human) [15] = target: T3, human OPG-Fc (human); experiment: SPR, OPG directly immobilized on CM5 chip, RANKL 4 nM-31.25 pM
human OPG-Fc (human) [16] = target: T3, human OPG-Fc (human); experiment: ELISA, wells coated with hOPG-FC
murine OPG-Fc (mouse) [17] = target: T4, murine OPG-Fc (mouse); experiment: ELISA, immobilized murine OPG-Fc
human OPG-Fc (human) [18] = target: T3, human OPG-Fc (human); experiment: SPR, hOPG-Fc directly immobilized on a CM5 chip, 25 C [contd.]

Measured: binding

B1: murine flagRANKL WT (wild-type mRANKL containing an N-terminal flagtag) (ligand, mouse, UniProt O35235 160-316, looked up)
chain: EAQPFAHLTINAASIPSGSHKVTLSSWYHDRGWAKISNMTLSNGKLRVNQDGFYYLYANICFRHHETSGSVPTDYLQLMVYVVKTSIKIPSSHNLMKGGSTKNWSGNSEFHFYSINVGGFFKLRAGEEISIQVSNPSLLDPDQDATYFGAFKVQDID
notes: Trimeric; also called flag-mRANKL WT; mWT; not shown: N-terminal flagtag
binds: human RANK-Fc [1] | murine RANK-Fc [2] | murine RANK-Fc [3] | murine RANK-Fc [4] | murine RANK-Fc [5] | murine RANK-Fc [6] | murine RANK-Fc [7] | murine RANK-Fc [8] | murine RANK-Fc [9] | human RANK-Fc [10]

B2: trimeric murine wild-type RANKL (R&D systems) (ligand, mouse, UniProt O35235 158-316, looked up)
chain: KPEAQPFAHLTINAASIPSGSHKVTLSSWYHDRGWAKISNMTLSNGKLRVNQDGFYYLYANICFRHHETSGSVPTDYLQLMVYVVKTSIKIPSSHNLMKGGSTKNWSGNSEFHFYSINVGGFFKLRAGEEISIQVSNPSLLDPDQDATYFGAFKVQDID
notes: Bought soluble trimeric protein; also called murine RANKL wt; mRANKL WT
binds: human OPG-Fc (human) [11] | human OPG-Fc (human) [12] | murine OPG-Fc (mouse) [13] | human OPG-Fc (human) [14] | human OPG-Fc (human) [15]

B3: murine RANKL heterodimeric variant mD1 (mouse Dimer 1) (ligand)
chain 1: EAQPFAHLTINAASIPSGSHKVTLSSWYHDRGWADISNMTLSNGKLRVNQDGFYYLYANISFRHHETSGSVPTDYLQLMVYVVKTSIKIPSSHNLMKGGSTKNWSGNSEFHYYSINVGGFFKLRAGEEISIQVSNPSLLDPDQDATYFGAFKVQDID
chain 2: EAQPFAHLTINAASIPSGSHKVTLSSWYHDRGWAKISNMTLSNGKLRVNQDGYYYLYANICFRHHETSGSVPTDYLQLMVYVVKTSIKIPSSHNLMDGGSTKNWSGNSEFHFYSINVGGYFKLRAGEEISIQVSNPSLLDPDQDATYFGAFKVQDID
notes: range 160-316; Heterodimer of monomer A (His-tagged) and monomer B, co-expressed in E. coli; also called RANKL dimer 1; RANK-L Dimer 1; not shown: hexahistidine-tag fused to monomer A
binds: human OPG-Fc (human) [11] | murine OPG-Fc (mouse) [13] | human OPG-Fc (human) [16] | human OPG-Fc (human) [14] | human OPG-Fc (human) [15] | murine OPG-Fc (mouse) [17] | human OPG-Fc (human) [18]

B4: murine RANKL heterodimeric variant mD2 (mouse Dimer 2) (ligand)
chain 1: EAQPFAHLVINAASIPSGSHKVTLSSWYHDRGWAKISNMTLSNGKLRVNQDGFYYLYANISFRHHETSGKVPTDYLQLMVYVVKTSIKIPSSHNLMKGGSTKNWSGNSEFHYYSINVGGFFKLRAGEEISIQVSNPSLLDPDQDATYFGAFKVQDID
chain 2: EAQPFAHLVINAASIPSGSHKVTLSSWYHDRGWAKISNMTLSNGKLRVNQDGYYYLYANICFRHHETSGKVPTDYLQLMVYVVKTSIKIPSSHNLMDGGSTKNWSGNSEFHFYSINVGGYFKLRAGEEISIQVSNPSLLDPDQDATYFGAFKVQDID
notes: range 160-316; Heterodimer of monomer A (His-tagged) and monomer B, co-expressed in E. coli; also called RANKL dimer 2; dRANKL D2; not shown: hexahistidine-tag fused to monomer A
binds: human OPG-Fc (human) [11] | murine OPG-Fc (mouse) [13] | human OPG-Fc (human) [16] | human OPG-Fc (human) [14] | human OPG-Fc (human) [15] | murine OPG-Fc (mouse) [17] | human OPG-Fc (human) [18]
